These results are taken from PMC10978942.

Chains of the proteins cited; added tags and fusions are not shown.
UniProt G0RLE8, entry or part of it: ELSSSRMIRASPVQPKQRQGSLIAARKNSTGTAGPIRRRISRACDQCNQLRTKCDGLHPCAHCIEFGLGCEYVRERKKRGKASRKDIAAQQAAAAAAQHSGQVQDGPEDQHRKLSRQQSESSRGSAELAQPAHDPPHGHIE

For one data set, the target named is ACE1 R383Q-DB (UniProt G0RCC6). The data set is described as follows: EMSA. The conditions noted are these: 1.5 uM protein does not completely bind 60 ng probe; EMSA: 30 or 60 ng Cy5 probe, reaction buffer (composition not given), 20 min, 25 C, native PAGE; recombinant protein; residues 317-528; protein details: GST; label: Cy5; probe letters rebuilt from the primers and the genome.

In the next data set the target is XYR1-DB (UniProt G0RLE8). The data set is described as follows: EMSA. The conditions noted are these: 0.5 uM XYR1-DB, specific XYR1-DNA complex, more distinct in competition with ACE1 R383Q-DB than with ACE1-DB; EMSA: 30 or 60 ng Cy5 probe, reaction buffer (composition not given), 20 min, 25 C, native PAGE; recombinant protein; residues 55-195; label: Cy5; probe letters rebuilt from the primers and the genome. (In general: A gel shift assay detects complexes by their altered migration in electrophoresis.)

For at least one entry, the source does not settle the construct or the ends of the probe. For some assays here: A weaker result is weaker than the reference pair of the same experiment.

On to “ACTAACTCGCGTACTGATGAGTAGATGGGGAGAGCATGAGGGAGGCACGGACCTCGAACCTTTATATATACACATTCGCTGACTTTGCCTACTAGCTCATTCCGTTTAATGAGGCTATCTTTATCGGCTATTGTTCTTGGCTAAGCTTCTCTTTCTATTCGAAACCATGCAGTGGCCCCTGAACATTTGCCTATCACATACCCTCAGCTGCTTGGTAAAGGCAGCAGTGTGTTCGATCCTACCACACTTTGCATTTGCCCGGAGCACAAACATGTACACCCAAAGGCCGAAGGCCCGAGGGCCCGAGATCTTAGGCAGTTTCAACTCAATCTTTTGCCTGTTCAGTGCCGACTTACATCAGTACGCGAGTTAGT (double strand) [cbh1-P3]”, for which the binding result in the data set with ACE1 R383Q-DB was “binds more weakly”; in the data set with XYR1-DB it was “binds”.
